# Source: patent publication US10130677B2, “Antimicrobial peptide and uses thereof” (priority 2013, dated 2018)
# Some results were stated once for a whole list of compounds, not compound by compound. Some compounds share one range, which may span the group rather than tell each member.
# Assays:
# Conditions in all cases: 50% plasma; range over P145, P148 and P159
# S. aureus JAR060131 = assay type: cell-based, Staphylococcus aureus
# Experimental: Polypeptides of the invention preferably have an in vitro IC99.9 of at most 150 μM after 2 hours at 37° C. against at least one microbial species in the presence of 50% plasma. Said IC99.9 is preferably determined in accordance with a method for determining the antimicrobial activity as described herein in the Examples. Said method described in the Examples for determining antimicrobial activity of microbes not associated with biofilm involves the mixing of 50 microL of a solution of a polypeptide in PBS with addition of human plasma at a final concentration of 50% and 20 microL of bacterial suspension with 5×10^6 CFU per mL of PBS in a well. After incubation of this mixture for 2 hours at 37° C. under shaking conditions, a sample is used for assessment of the bacterial counts. The lowest peptide concentration at which there is 99.9% of bacteria killed, is called the inhibitory concentration (IC) 99.9. Bacterial counts can be determined by manual CFU counting. For determining antibacterial activity for instance 1×10^6 CFU/ml bacteria are used, for determining antifungal activity for instance 1×10^5 cells/ml are used.
# (§1) Peptides were incubated with 1×10^6 CFU/ml of a mid-logarithmic culture of S. aureus JAR060131, methicillin resistant S. aureus (MRSA) LUH14616, Staphylococcus epidermidis RP62a, and Pseudomonas aeruginosa PAO1 in PBS without or with addition of pooled human plasma (Sanquin, Amsterdam, the Netherlands) at a final concentration of 50%. Antimicrobial activity is expressed as the 99.9% lethal concentration (LC99.9), i.e., the lowest peptide concentration which killed ≥99.9% of bacteria after 2 hours of incubation at 37° C. under shaking conditions.
# [1] = tested on: Pseudomonas aeruginosa PAO1; assay type: cell-based
# Experimental: as §1
# [2] = tested on: methicillin resistant S. aureus (MRSA) LUH14616; assay type: cell-based, Staphylococcus aureus
# Experimental: as §1
Substance,higher bactericidal activity as compared to OP-145 (S. aureus JAR060131),higher bactericidal activity as compared to OP-145 [1],higher bactericidal activity as compared to OP-145 [2]
"Ac-LKRVWKRVFKLLKRYWRQLKKPVR-NH2 [Peptide P148, J LKRVWKRVFKLLKRYWRQLKKPVR B]",11-16 fold,11-21 fold,21-26 fold
"Ac-LKRLYKRLAKLIKRLYRYLKKPVR-NH2 [Peptide P145, J LKRLYKRLAKLIKRLYRYLKKPVR B]",11-16 fold,11-21 fold,21-26 fold
"Ac-LKRLYKRVFRLLKRYYRQLRRPVR-NH2 [Peptide P159, J LKRLYKRVFRLLKRYYRQLRRPVR B]",11-16 fold,11-21 fold,21-26 fold
